The results in this text go back to paper PMC8716364, “A Redox-Sensitive Cysteine Is Required for PIN1At Function” (Frontiers in Plant Science, 2021).

These are yes or no findings as the source states them, for the method shown. Where a sequence is shown, tags or fusion partners need not be part of it.

In the test the target is Arabidopsis PIN1At, untagged recombinant protein (Arabidopsis thaliana) (UniProt Q9SL42). Put plainly: condition: only reduced, without H2O2 (76 μM protein); SEC-MALS; 76 μM (300 μg) reduced PIN1At, no H2O2, 30 mM Tris-HCl pH 8.0, 200 mM NaCl, Superdex200 10/300; both purified. For orientation: Size exclusion chromatography separates by hydrodynamic size, large species first.

B1: Arabidopsis PIN1At, untagged recombinant protein (enzyme, Arabidopsis thaliana, UniProt Q9SL42 2-119, looked up)
chain: ASRDQVKASHILIKHQGSRRKASWKDPEGKIILTTTREAAVEQLKSIREDIVSGKANFEEVATRVSDCSSAKRGGDLGSFGRGQMQKPFEEATYALKVGDISDIVDTDSGVHIIKRTA
notes: Single cysteine, Cys69; the printed masses (12.3 kDa, 12,882.7 Da; theoretical 13,014.7 Da) fit the untagged protein; also called PAR1; PIN1At/PAR1; source: E. coli BL21 (DE3) with pSBET, pET12a, purified (ammonium sulfate, ACA44 gel filtration, DEAE-Sephacel)
For the molecule B1, the binding entry was “no binding”.
